# Measurements from the supplement of paper PMC10849652.
# The chains behind the UniProt entries cited, without tags or fusion partners. Where a name states a change or a piece, a line headed by the entry shows the natural chain unless it says otherwise.
# UniProt Q8NDV3: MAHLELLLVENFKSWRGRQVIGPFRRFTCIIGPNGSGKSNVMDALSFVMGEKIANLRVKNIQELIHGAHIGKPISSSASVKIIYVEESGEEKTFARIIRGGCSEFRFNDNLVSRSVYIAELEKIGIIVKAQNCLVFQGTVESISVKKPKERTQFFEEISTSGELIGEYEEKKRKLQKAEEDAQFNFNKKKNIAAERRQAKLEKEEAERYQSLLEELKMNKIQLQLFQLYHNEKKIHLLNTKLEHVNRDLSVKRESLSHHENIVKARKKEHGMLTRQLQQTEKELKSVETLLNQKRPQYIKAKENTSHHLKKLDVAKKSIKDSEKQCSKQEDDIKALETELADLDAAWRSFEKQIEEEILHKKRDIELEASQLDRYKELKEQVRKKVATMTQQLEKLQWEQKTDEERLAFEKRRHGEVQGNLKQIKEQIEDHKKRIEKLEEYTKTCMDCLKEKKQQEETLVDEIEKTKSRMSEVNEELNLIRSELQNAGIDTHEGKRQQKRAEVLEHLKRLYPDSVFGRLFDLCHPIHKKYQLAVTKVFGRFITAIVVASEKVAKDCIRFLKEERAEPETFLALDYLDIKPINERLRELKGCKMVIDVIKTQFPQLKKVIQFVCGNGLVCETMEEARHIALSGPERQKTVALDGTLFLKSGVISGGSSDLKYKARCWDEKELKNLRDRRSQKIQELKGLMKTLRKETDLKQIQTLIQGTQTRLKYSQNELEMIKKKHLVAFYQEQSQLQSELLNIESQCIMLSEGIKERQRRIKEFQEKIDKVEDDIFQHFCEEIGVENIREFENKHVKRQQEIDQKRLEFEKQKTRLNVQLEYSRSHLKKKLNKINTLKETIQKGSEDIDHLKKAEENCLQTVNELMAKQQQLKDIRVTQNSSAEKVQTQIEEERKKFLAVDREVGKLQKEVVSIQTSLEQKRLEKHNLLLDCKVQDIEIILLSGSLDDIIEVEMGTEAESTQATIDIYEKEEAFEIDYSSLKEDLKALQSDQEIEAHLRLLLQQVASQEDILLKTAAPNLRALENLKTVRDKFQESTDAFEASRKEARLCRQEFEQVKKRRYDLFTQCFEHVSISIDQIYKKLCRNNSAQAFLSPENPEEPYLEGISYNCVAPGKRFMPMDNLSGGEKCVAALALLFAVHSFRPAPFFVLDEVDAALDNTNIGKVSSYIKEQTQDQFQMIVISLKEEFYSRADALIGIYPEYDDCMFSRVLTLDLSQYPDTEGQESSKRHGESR
# UniProt P62306, whole entry, looked up: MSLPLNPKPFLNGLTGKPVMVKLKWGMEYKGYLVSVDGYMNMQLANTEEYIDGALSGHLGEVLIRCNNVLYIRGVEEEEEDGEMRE
# UniProt Q92925, whole entry, looked up: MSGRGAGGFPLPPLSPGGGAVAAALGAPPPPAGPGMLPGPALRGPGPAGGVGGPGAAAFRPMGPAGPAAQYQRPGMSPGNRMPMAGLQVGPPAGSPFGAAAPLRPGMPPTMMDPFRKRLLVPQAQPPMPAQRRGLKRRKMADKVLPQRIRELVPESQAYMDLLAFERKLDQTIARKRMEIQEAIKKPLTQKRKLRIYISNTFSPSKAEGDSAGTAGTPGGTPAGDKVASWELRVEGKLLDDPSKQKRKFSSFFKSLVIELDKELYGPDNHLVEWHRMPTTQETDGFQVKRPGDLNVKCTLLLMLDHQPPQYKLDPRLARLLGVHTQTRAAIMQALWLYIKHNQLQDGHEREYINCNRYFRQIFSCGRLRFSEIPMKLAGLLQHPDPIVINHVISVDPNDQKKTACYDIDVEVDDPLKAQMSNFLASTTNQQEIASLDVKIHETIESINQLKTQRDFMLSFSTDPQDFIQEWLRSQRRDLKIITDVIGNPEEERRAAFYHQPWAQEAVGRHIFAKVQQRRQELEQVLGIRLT
# UniProt P62308, whole entry, looked up: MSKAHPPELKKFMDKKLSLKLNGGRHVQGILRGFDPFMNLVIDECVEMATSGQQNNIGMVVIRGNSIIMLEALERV
# UniProt Q9NRS6: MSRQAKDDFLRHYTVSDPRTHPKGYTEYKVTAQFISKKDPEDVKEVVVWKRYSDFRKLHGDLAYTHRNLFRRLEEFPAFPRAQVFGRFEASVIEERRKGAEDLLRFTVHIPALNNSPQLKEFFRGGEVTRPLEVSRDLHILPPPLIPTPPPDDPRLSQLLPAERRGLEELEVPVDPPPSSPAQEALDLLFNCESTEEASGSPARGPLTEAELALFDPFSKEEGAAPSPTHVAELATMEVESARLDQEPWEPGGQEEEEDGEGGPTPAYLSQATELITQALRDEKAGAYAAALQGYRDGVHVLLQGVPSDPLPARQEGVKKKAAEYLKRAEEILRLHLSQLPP
# UniProt O60749: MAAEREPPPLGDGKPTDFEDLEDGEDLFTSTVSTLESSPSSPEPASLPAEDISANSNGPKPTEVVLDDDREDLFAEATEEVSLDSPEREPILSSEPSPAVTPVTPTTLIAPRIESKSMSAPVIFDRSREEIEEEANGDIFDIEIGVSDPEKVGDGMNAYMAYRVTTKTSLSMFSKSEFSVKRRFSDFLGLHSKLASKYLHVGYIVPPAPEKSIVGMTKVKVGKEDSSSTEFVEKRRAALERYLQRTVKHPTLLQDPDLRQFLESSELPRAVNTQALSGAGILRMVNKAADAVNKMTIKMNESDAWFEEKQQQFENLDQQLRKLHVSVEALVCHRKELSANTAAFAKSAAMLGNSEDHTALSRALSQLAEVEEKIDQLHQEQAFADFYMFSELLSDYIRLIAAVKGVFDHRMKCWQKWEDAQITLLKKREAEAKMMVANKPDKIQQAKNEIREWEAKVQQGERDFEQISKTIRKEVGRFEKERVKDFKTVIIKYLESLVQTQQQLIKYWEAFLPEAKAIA
# UniProt Q969G3, whole entry, looked up: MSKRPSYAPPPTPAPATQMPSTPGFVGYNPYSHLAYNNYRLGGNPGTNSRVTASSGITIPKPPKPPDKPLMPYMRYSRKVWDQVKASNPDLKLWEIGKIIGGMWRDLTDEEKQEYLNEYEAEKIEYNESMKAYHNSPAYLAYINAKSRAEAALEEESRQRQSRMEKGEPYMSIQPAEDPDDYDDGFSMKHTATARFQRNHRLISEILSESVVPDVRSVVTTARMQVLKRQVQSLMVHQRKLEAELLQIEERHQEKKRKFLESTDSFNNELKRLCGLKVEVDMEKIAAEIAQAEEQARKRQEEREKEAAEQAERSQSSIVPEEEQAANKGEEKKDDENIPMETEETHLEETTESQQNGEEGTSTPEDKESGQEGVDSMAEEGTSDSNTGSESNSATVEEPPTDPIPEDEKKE
# UniProt Q9NTJ3, whole entry, looked up: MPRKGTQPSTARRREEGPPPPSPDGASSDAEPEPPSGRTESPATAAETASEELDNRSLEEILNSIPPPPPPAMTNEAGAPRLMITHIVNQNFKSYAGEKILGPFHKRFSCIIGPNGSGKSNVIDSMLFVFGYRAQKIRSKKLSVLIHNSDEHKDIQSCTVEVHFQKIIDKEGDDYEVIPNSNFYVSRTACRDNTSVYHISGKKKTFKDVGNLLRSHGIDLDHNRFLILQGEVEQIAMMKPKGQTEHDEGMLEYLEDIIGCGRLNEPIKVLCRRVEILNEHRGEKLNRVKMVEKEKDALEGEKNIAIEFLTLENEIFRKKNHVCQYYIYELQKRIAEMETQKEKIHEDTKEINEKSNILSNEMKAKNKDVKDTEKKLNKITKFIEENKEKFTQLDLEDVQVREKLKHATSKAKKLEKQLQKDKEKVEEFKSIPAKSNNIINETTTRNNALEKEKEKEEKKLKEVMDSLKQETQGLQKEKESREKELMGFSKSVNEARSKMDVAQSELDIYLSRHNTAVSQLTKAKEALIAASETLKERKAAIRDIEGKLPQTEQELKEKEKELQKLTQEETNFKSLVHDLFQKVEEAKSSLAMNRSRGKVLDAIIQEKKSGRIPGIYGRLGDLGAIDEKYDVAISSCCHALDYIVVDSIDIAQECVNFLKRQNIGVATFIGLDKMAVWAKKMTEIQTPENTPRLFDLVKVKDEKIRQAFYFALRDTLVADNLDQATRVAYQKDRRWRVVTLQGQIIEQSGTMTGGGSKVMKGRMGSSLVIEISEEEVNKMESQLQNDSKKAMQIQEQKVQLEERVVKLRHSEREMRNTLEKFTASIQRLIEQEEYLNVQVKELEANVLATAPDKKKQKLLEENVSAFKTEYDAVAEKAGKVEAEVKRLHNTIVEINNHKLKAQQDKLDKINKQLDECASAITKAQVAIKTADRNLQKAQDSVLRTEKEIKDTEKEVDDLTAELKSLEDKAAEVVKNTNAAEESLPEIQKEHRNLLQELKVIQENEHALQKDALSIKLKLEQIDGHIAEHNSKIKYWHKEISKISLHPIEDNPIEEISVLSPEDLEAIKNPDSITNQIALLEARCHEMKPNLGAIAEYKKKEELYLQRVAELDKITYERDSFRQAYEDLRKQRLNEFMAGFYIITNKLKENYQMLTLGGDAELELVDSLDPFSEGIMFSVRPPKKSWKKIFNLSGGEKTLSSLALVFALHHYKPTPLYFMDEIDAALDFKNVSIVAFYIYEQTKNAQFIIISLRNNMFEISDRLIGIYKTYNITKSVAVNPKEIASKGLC
# UniProt Q53HV7: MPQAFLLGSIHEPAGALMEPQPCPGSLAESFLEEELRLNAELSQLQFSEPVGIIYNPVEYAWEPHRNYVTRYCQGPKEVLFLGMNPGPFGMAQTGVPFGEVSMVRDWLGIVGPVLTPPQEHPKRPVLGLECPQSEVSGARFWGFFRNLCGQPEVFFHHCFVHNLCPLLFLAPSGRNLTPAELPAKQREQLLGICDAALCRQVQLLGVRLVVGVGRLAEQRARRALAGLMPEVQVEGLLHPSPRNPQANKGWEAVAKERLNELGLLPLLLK
# UniProt Q9Y5X3: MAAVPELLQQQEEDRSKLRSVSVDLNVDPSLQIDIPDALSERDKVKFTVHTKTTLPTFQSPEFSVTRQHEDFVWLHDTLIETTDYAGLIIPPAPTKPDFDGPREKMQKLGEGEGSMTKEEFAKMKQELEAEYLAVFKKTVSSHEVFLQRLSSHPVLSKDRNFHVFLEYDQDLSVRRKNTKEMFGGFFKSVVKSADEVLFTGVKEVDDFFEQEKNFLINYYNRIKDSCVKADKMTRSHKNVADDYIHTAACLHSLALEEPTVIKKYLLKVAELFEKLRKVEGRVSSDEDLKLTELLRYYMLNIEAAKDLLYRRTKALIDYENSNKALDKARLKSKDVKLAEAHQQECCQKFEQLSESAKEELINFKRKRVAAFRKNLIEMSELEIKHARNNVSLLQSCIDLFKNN
# UniProt P62318, whole entry, looked up: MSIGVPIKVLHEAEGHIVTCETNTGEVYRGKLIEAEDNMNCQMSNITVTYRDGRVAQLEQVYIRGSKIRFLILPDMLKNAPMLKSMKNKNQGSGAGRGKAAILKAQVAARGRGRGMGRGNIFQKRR
# UniProt Q92922, whole entry, looked up: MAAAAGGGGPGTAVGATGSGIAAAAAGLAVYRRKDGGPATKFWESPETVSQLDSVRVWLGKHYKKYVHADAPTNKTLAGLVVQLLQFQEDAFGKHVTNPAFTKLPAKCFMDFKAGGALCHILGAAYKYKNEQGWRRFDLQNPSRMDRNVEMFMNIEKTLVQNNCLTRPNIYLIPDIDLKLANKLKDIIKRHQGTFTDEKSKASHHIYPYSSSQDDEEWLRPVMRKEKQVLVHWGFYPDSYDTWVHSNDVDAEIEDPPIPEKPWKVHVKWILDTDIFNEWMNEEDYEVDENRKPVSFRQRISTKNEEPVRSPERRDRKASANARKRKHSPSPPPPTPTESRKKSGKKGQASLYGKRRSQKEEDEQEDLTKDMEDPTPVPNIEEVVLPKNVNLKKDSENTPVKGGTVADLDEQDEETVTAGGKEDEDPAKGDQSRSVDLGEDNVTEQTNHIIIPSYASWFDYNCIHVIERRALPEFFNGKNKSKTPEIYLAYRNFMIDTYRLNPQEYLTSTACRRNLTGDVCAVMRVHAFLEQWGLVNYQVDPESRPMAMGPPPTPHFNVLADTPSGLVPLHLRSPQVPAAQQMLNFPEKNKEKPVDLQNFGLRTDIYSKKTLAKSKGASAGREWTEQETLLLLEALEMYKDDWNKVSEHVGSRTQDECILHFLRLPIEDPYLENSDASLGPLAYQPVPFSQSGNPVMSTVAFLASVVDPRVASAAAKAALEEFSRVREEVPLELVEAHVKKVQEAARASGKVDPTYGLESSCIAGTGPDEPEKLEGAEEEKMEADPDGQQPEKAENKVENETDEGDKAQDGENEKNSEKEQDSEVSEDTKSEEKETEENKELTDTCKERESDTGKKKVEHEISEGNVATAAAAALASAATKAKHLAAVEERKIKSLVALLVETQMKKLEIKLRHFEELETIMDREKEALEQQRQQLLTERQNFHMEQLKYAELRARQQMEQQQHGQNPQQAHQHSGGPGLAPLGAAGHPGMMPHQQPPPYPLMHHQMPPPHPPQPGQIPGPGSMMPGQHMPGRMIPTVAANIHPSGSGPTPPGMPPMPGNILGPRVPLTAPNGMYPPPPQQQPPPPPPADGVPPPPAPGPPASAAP
# UniProt P00441, whole entry, looked up: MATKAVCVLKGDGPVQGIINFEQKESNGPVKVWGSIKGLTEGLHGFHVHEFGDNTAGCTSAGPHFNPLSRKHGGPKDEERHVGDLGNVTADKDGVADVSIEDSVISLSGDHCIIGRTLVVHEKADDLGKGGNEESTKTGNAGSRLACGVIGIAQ
# The list shows a part of the results.
# Legend:
# Test in all cases: log2 fold change, soluble protein after heating vs DMSO (PISA); higher = thermal stabilisation; K562 lysate, 10 uM; active = over 0.2 and 3.5 SD of the protein, either way, in both replicates (recomputed)
# [1] = compound: NCC(=O)Nc1ccc(-n2nc(C(F)(F)F)cc2-c2ccc3c(ccc4ccccc43)c2)cc1
# Procedure, shortened: (§1)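 Quantification was by TMTpro 16plex LC-MS/MS with equalised channel sums, applied to the supernatant after 21,000xg for 90 min. Samples were crude K562 extract at 1 mg/mL protein in PBS pH 7.4 with 1 mM MgCl2, treated with 10 μM compound for 30 min, heated for 3 min across 48°C-58°C, pooled and brought to 0.5% NP-40 at 4°C. Values are log-two fold changes in thermal stability relative to solvent controls, from duplicates.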
# vorinostat = compound: O=C(CCCCCCC(=O)Nc1ccccc1)NO [vorinostat]
# Procedure, shortened: as §1
# silmitasertib = compound: O=C(O)c1ccc2c(c1)nc(Nc1cccc(Cl)c1)c1ccncc12 [silmitasertib]
# Procedure, shortened: as §1
# [2] = compound: O=C1NC(=O)C(c2cnc3ccccn23)=C1c1cn2c3c(cc(F)cc13)CN(C(=O)N1CCCCC1)CC2
# Procedure, shortened: as §1
# entospletinib = compound: c1cn2cc(-c3ccc4cn[nH]c4c3)nc(Nc3ccc(N4CCOCC4)cc3)c2n1 [entospletinib]
# Procedure, shortened: as §1
Target,log2 fold change [1],log2 fold change (vorinostat),log2 fold change (silmitasertib),log2 fold change [2],log2 fold change (entospletinib)
SNX4 (UniProt O95219),inactive: 0,inactive: 0.008,inactive: 0.04,inactive: 0.075,inactive: -0.029
SMC1B isoform 3 (UniProt Q8NDV3),inactive: -0.063,inactive: 0.068,inactive: -0.011,inactive: 0.026,inactive: 0.004
SNRPF (UniProt P62306),inactive: -0.019,inactive: -0.014,inactive: -0.001,inactive: -0.01,inactive: -0.016
SNRK (UniProt Q9NRH2),inactive: -0.021,inactive: -0.133,inactive: -0.095,inactive: -0.082,inactive: -0.015
SNRPC (UniProt Q5TAL2),inactive: 0.068,inactive: 0.14,inactive: -0.047,inactive: 0.083,inactive: -0.055
SNX27 (UniProt Q96L92),inactive: -0.015,inactive: -0.152,inactive: 0.022,inactive: 0.029,inactive: 0.012
SPAG5 (UniProt Q96R06),inactive: 0.038,active: -0.298,inactive: 0.042,inactive: -0.007,inactive: 0.008
SP4 (UniProt Q02446),inactive: 0.059,inactive: 0.234,inactive: -0.133,inactive: -0.043,inactive: -0.028
SMARCD2 (UniProt Q92925),inactive: 0.008,inactive: -0.133,inactive: 0.032,inactive: 0.019,inactive: -0.01
SNRPG (UniProt P62308),inactive: 0.007,inactive: 0.14,inactive: -0.039,inactive: 0.021,inactive: -0.001
SP6 (UniProt Q3SY56),inactive: -0.095,inactive: 0.044,inactive: -0.099,inactive: -0.061,inactive: -0.031
SNAPIN (UniProt O95295),inactive: -0.018,inactive: 0.032,inactive: -0.014,inactive: 0.006,inactive: -0.057
SNW1 (UniProt Q13573),inactive: 0.011,active: 0.224,inactive: -0.003,inactive: -0.012,inactive: 0.009
SNAP23 (UniProt O00161),inactive: -0.017,inactive: 0.052,inactive: -0.067,inactive: -0.016,inactive: 0.004
SMIM15 (UniProt Q7Z3B0),inactive: -0.041,inactive: 0.18,inactive: -0.061,inactive: -0.061,inactive: 0.045
SOX6 (UniProt P35712),inactive: -0.287,inactive: 0.125,inactive: 0.036,inactive: -0.016,inactive: -0.017
SNX15 (UniProt Q9NRS6),inactive: 0.002,inactive: -0.104,inactive: 0.03,inactive: 0.005,inactive: -0.02
SMC1A (UniProt Q14683),inactive: 0.01,inactive: 0.052,inactive: 0.008,inactive: -0.016,inactive: 0.002
SMCHD1 (UniProt A6NHR9),inactive: 0,inactive: -0.149,inactive: 0.02,inactive: 0.02,inactive: 0.007
SOGA1 isoform 2 (UniProt O94964),inactive: -0.015,inactive: -0.242,inactive: 0.016,inactive: -0.025,inactive: -0.013
SNRNP27 (UniProt Q8WVK2),inactive: 0.034,inactive: 0.08,inactive: -0.021,inactive: -0.097,inactive: -0.033
SNX2 isoform 2 (UniProt O60749),inactive: 0.311,inactive: 0.069,inactive: 0,inactive: 0.224,inactive: 0.052
SMARCE1 (UniProt Q969G3),inactive: 0.01,inactive: 0.007,inactive: 0.019,inactive: -0.066,inactive: 0
SMC4 (UniProt Q9NTJ3),inactive: 0.013,active: -0.296,inactive: 0.011,inactive: -0.015,inactive: 0.009
SMUG1 (UniProt Q53HV7),inactive: -0.004,inactive: -0.191,inactive: -0.001,,inactive: -0.004
SNRNP40 (UniProt Q96DI7),inactive: 0.01,inactive: 0.233,inactive: -0.012,inactive: 0.022,inactive: 0.03
SNX16 (UniProt P57768),inactive: 0.085,inactive: 0.009,inactive: -0.07,inactive: -0.029,inactive: 0.029

# 4 entries picked at random from those above, as already listed:
Target,log2 fold change [1],log2 fold change (vorinostat),log2 fold change (silmitasertib),log2 fold change [2],log2 fold change (entospletinib)
SNW1 (UniProt Q13573),inactive: 0.011,active: 0.224,inactive: -0.003,inactive: -0.012,inactive: 0.009
SMARCE1 (UniProt Q969G3),inactive: 0.01,inactive: 0.007,inactive: 0.019,inactive: -0.066,inactive: 0
SOGA1 isoform 2 (UniProt O94964),inactive: -0.015,inactive: -0.242,inactive: 0.016,inactive: -0.025,inactive: -0.013
SNX4 (UniProt O95219),inactive: 0,inactive: 0.008,inactive: 0.04,inactive: 0.075,inactive: -0.029

# Continued:

Target,log2 fold change [1],log2 fold change (vorinostat),log2 fold change (silmitasertib),log2 fold change [2],log2 fold change (entospletinib)
SOD2 (UniProt P04179),inactive: 0.016,inactive: 0.16,inactive: -0.023,inactive: 0.046,inactive: 0.003
SP1 (UniProt P08047),inactive: 0.001,active: -0.376,inactive: -0.045,inactive: 0.081,inactive: -0.006
SMG9 (UniProt Q9H0W8),inactive: -0.03,inactive: -0.089,inactive: -0.011,inactive: 0,inactive: -0.069
SNUPN (UniProt O95149),inactive: -0.076,inactive: -0.037,inactive: 0.142,inactive: -0.043,inactive: -0.066
SPAG9 (UniProt O60271),inactive: 0.011,inactive: 0.113,inactive: -0.021,inactive: -0.002,inactive: -0.024
SNF8 (UniProt Q96H20),inactive: 0.005,inactive: 0.079,inactive: 0.004,inactive: -0.012,inactive: -0.008
SMYD3 (UniProt Q9H7B4),inactive: 0.044,active: -0.202,inactive: 0.029,inactive: -0.003,inactive: -0.008
SMU1 isoform 2 (UniProt Q2TAY7),inactive: 0.25,inactive: -0.063,inactive: 0.022,,inactive: 0.074
SMG8 isoform 2 (UniProt Q8ND04),inactive: 0.027,inactive: -0.166,inactive: 0.015,inactive: 0.004,inactive: -0.021
SNX5 (UniProt Q9Y5X3),inactive: 0.016,inactive: -0.029,inactive: 0.007,inactive: -0.055,inactive: 0.01
SMG5 (UniProt Q9UPR3),inactive: 0.04,active: -0.381,inactive: -0.024,inactive: 0.024,inactive: -0.023
SNCG (UniProt O76070),inactive: 0.027,inactive: 0.141,inactive: -0.043,inactive: -0.007,inactive: 0.001
SNX9 (UniProt Q9Y5X1),inactive: -0.01,inactive: -0.055,inactive: 0.014,inactive: -0.023,inactive: 0.004
SMG7 (UniProt Q92540),inactive: 0.158,inactive: -0.053,inactive: 0.027,inactive: -0.035,inactive: 0.054
SORT1 (UniProt Q99523),inactive: -0.018,inactive: 0.095,inactive: 0.011,inactive: -0.006,inactive: -0.006
SNRPA (UniProt P09012),inactive: 0.019,inactive: 0.156,inactive: -0.018,inactive: 0.001,inactive: -0.003
SNX8 (UniProt Q9Y5X2),inactive: 0.005,inactive: 0.018,inactive: 0.025,inactive: 0.023,inactive: 0.022
SNRPD3 (UniProt P62318),inactive: -0.011,inactive: 0.12,inactive: -0.023,inactive: 0.008,inactive: -0.027
SNX12 isoform 1 (UniProt Q9UMY4),inactive: 0.017,inactive: 0.046,inactive: 0.009,inactive: 0,inactive: 0.01
SNX2 (UniProt O60749),inactive: -0.003,inactive: -0.088,inactive: 0.007,inactive: 0.006,inactive: 0.001
SMARCB1 (UniProt Q12824),inactive: -0.001,inactive: -0.225,inactive: 0.067,inactive: -0.039,inactive: 0.016
SMARCC1 (UniProt Q92922),inactive: 0.012,inactive: -0.117,inactive: -0.008,inactive: 0.017,inactive: -0.014
SMU1 (UniProt Q2TAY7),inactive: -0.061,inactive: 0.086,inactive: 0,inactive: -0.012,inactive: -0.005
SNTB2 (UniProt Q13425),inactive: 0.058,inactive: -0.127,inactive: 0.083,inactive: 0.099,inactive: -0.044
SMARCA5 (UniProt O60264),inactive: 0.011,inactive: -0.06,inactive: 0.072,inactive: -0.021,inactive: -0.041
SMIM12 (UniProt Q96EX1),inactive: -0.044,inactive: 0.174,inactive: -0.003,inactive: -0.025,inactive: -0.058
SOD1 (UniProt P00441),inactive: -0.038,inactive: 0.092,inactive: -0.024,inactive: -0.105,inactive: -0.049
